In PMC10786037, “Autoinhibition in the Signal Transducer CIN85 Modulates B Cell Activation” (Journal of the American Chemical Society, 2023):
These are yes or no findings as the source states them, for the method shown. Binding seen in cells or lysates may run through a third protein. These calls come from enrichment with a bait or labelling near it, and not all partners need be listed.

Amino acid sequences for entries named in this document (tags omitted). A change or cut given only in a name is not applied to a line headed by its entry.
UniProt Q96B97: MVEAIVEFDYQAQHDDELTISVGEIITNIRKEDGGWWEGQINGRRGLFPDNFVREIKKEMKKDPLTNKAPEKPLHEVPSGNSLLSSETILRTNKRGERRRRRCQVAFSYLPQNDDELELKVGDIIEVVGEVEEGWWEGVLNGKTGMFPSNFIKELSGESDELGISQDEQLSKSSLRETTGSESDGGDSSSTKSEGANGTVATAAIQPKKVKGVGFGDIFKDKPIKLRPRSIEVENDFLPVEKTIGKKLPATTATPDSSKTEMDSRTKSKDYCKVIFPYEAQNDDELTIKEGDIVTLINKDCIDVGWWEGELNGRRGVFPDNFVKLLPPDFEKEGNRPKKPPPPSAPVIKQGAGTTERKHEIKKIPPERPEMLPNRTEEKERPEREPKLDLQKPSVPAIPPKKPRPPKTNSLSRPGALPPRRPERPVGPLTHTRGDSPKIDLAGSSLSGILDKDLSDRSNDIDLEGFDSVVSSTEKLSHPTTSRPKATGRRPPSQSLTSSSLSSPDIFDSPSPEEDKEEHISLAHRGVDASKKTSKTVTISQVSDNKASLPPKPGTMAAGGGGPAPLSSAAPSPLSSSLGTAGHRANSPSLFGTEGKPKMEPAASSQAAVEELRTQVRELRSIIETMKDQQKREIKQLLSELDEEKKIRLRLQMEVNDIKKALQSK
UniProt Q8WV28: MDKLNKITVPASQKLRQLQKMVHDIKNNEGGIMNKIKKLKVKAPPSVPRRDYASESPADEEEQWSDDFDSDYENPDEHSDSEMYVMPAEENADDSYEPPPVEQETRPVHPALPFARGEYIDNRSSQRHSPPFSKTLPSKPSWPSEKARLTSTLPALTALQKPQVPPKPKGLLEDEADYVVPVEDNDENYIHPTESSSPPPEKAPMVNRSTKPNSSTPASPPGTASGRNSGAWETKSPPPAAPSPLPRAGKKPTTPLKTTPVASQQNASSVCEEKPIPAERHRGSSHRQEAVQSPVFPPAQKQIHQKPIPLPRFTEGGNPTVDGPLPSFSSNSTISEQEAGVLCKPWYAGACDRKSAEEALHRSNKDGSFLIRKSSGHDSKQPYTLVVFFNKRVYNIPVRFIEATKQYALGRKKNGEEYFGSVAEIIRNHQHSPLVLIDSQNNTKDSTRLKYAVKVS

How the values were obtained:
[1] = target: full-length citrine (cit)-CIN85 (human) (UniProt Q96B97); assay: affinity purification with mass spectrometry; CIN85 purified from lysates of DG75 B cells expressing cit-CIN85 or cit-CIN85-S230A, resting and stimulated state; label-free mass spectrometry
[2] = target: full-length citrine (cit)-CIN85-S230A (human) (UniProt Q96B97); assay: as above

- binding [1]: binds
- binding [2]: binds
Substance: Src homology 2 domain-containing leukocyte protein of 65 kDa (SLP65) (from UniProt Q8WV28 1-456)
